doi:10.1101/2022.03.27.486008
No constants are given. Whether binding was seen depends on the method and setting. For some assays here: In cells and extracts the contact can be indirect. Some results given as binding are weak or reduced against the parent protein; the word gives no strength. Where a sequence is shown, tags or fusion partners need not be part of it.

T1: MKKK20 fused to the GAL4 DNA-binding domain (BD-MKKK20) (Arabidopsis thaliana) (UniProt Q9SND6)
T1 sequence: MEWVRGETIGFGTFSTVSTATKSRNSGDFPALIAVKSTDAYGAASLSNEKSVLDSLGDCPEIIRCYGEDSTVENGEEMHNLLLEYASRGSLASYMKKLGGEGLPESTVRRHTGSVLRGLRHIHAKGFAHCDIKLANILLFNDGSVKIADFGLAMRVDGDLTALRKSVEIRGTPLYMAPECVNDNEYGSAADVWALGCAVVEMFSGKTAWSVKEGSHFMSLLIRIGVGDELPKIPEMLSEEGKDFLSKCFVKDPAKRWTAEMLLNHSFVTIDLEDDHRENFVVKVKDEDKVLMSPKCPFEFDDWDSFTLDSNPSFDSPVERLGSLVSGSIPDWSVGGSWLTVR

T2: MKKK20-cYFP (Arabidopsis thaliana) (UniProt Q9SND6)
T2 sequence: T1 sequence

B1: CML10 fused to the GAL4-activating domain (protein, UniProt P30187 1-191)
chain: MANKFTRQQISEFREQFSVYDKNGDGHITTEEFGAVMRSLGLNLTQAELQEEINDSDLDGDGTINFTEFLCAMAKDTYSEKDLKKDFRLFDIDKNGFISAAEMRYVRTILRWKQTDEEIDEIIKAADVDGDGQINYREFARLMMAKNQGHDTKYDTTGGTLERDLAAGVAKNIIAAPMTDFIKNLFEALFS
B2: CaM9 fused to the GAL4-activating domain (protein, UniProt Q9S744 1-151)
chain: MADAFTDEQIQEFYEAFCLIDKDSDGFITKEKLTKVMKSMGKNPKAEQLQQMMSDVDIFGNGGITFDDFLYIMAQNTSQESASDELIEVFRVFDRDGDGLISQLELGEGMKDMGMKITAEEAEHMVREADLDGDGFLSFHEFSKMMIAASY
B3: CRK30, nYFP-tagged (protein, UniProt Q9LDT0 25-700)
chain: QLCSEKFGTFTPGGTFDKNRRIILSSLPSEVTAQDGFYNASIGTDPDQLYAMGMCIPGAKQKLCRDCIMDVTRQLIQTCPNQTAAIHWSGGGKTVCMARYYNQPSSRPLDLESVSIGYNVGNLSTNLTDFDRLWERLIAHMVTKASSASIKYLSFDNSRFYAADETNLTNSQMVYALMQCTPDVSPSNCNTCLKQSVDDYVGCCHGKQGGYVYRPSCIFRWDLYPFNGAFDLLTLAPPPSSQLQSPPPVTNKDEKTIHTGTIIGIVIVVAMVIIMALLALGVSVCRSRKKYQAFASETADDITTVGYLQFDIKDIEAATSNFLASNKIGQGGFGEVYKGTLSNGTEVAVKRLSRTSDQGELEFKNEVLLVAKLQHRNLVRLLGFALQGEEKILVFEFVPNKSLDYFLFGSTNPTKKGQLDWTRRYNIIGGITRGLLYLHQDSRLTIIHRDIKASNILLDADMNPKIADFGMARNFRDHQTEDSTGRVVGTFGYMPPEYVAHGQFSTKSDVYSFGVLILEIVSGRKNSSFYQMDGSVCNLVTYVWRLWNTDSSLELVDPAISGSYEKDEVTRCIHIGLLCVQENPVNRPALSTIFQMLTNSSITLNVPQPPGFFFRNRPESDTLRRGLEPDQYNNESVTCSIDNATITTLLGKTLASALCCITSTLFSKSMYRNTED
B4: CRK21, nYFP-tagged (protein, UniProt Q3E9X6 25-690)
chain: APTCIQRSDFFKANGPYDINLRAMLSSLPSRVKDNEGFYKTPFKPGPNIAHGLGMCSRGTTTQDCSDCITSVSHTLLHTCPNQAEAIDWSSGDSLCLVRYSNHLINGSLDEDIIWAEYIEYKYNTSFGQTNLTEFKSTWQALMDRVINKVDGSLYANSIQELGSFPFRSIYAIAQCNKDLTKLNCEKCLQHLRIDNRSCCRGIQVGYIARTSCFMRWDLQPFLGLFINGMLPTPPSELDNGHSNTTKKDGKNISTGSIVAIAVVSVVVSTVLLALGYAVSRRRKAYQSFASENGYFSVSRRPRRPYGTASPDDATDDLTASSGSLRFDFRAIKAATSNFHKSNKLGHGGFGAVYKGMFPNGTEVAAKRLSKPSDQGEPEFKNEVLLVARLQHKNLVGLLGFSVEGEEKILVYEFVPNKSLDHFLFDPIKRVQLDWPRRHNIIEGITRGILYLHQDSRLTIIHRDLKASNILLDAEMNPKIADFGLARNFRVNQTEANTGRVVGTFGYMPPEYVANGQFSTKSDVYSFGVLILEIIGGKKNSSFHQIDGSVSNLVTHVWRLRNNGSLLELVDPAIGENYDKDEVIRCIHIGLLCVQENPDDRPSMSTIFRMLTNVSITLPVPQPPGFFFRERSEPNPLAERLLPGPSTSMSFTCSVDDASITSVRPR
B5: CML10, nYFP-tagged (protein, UniProt P30187 1-191)
chain: B1 chain
B6: CRK14, nYFP-tagged (protein, UniProt Q8H199 23-658)
chain: QECGKTGFFVPQSRYETNRGLLLSSLPSNVSARGGFYNSSIGQGPDRVYALGMCIEGAEPDVCSDCIEYASNLLLDTCLNQTEGLAWPEKRILCMVRYSNSSFFGSLKAEPHFYIHNVDDITSNLTEFDQVWEELARRMIASTTSPSSKRKYYAADVAALTAFQIIYALMQCTPDLSLEDCHICLRQSVGDYETCCNGKQGGIVYRASCVFRWELFPFSEAFSRISLAPPPQSPAFPTLPAVTNTATKKGSITISIGIVWAIIIPTVIVVFLVLLALGFVVYRRRKSYQGSSTDITITHSLQFDFKAIEDATNKFSESNIIGRGGFGEVFMGVLNGTEVAIKRLSKASRQGAREFKNEVVVVAKLHHRNLVKLLGFCLEGEEKILVYEFVPNKSLDYFLFDPTKQGQLDWTKRYNIIRGITRGILYLHQDSRLTIIHRDLKASNILLDADMNPKIADFGMARIFGIDQSGANTKKIAGTRGYMPPEYVRQGQFSTRSDVYSFGVLVLEIICGRNNRFIHQSDTTVENLVTYAWRLWRNDSPLELVDPTISENCETEEVTRCIHIALLCVQHNPTDRPSLSTINMMLINNSYVLPDPQQPGFFFPIISNQERDGLDSMNRSNPQTINDVTITDFEPR
B7: CRK12, nYFP-tagged (protein, UniProt O65472 19-659)
chain: LQTLPCINTTYFIPNSTYDTNRRVILSLLPSNVTSHFGFFNGSIGQAPNRVYAVGMCLPGTEEESCIGCLLSASNTLLETCLTEENALIWIANRTICMIRYSDTSFVGSFELEPHREFLSIHGYKTNETEFNTVWSRLTQRMVQEASSSTDATWSGAKYYTADVAALPDSQTLYAMMQCTPDLSPAECNLCLTESVVNYQSCCLGRQGGSIVRLSCAFRAELYPFGGAFTVMTARPLSQPPPSLIKKDSGKFSTETIAAIVVPIIVVAIIFLVLLVLSRLFARRRKSYQEIDLDQSGITTLHFQQLDFKTIEVATENFAKTNKLGQGGFGEVYKGTLVNGTEVAVKRLSKTSEQGAQEFKNEVVLVAKLQHRNLVKLLGYCLEPEEKILVYEFVPNKSLDYFLFDPTKQGQLDWTKRYNIIGGITRGILYLHQDSRLTIIHRDLKASNILLDADMIPKIADFGMARISGIDQSVANTKRIAGTFGYMPPEYVIHGQFSMKSDVYSFGVLILEIICGKKNRSFYQADTKAENLVTYVWRLWTNGSPLELVDLTISENCQTEEVIRCIHIALLCVQEDPKDRPNLSTIMMMLTNSSLILSVPQPPGFFVPQNKERDSFLSSQFTMGCTSQTKNDVTITNLDPR
B8: CRK16, nYFP-tagged (protein, UniProt O65476 27-662)
chain: QKCGKTGLFKPNDKYDINRHLLLSSLASNVSARGGFYNASIGQGPDRLYASGTCIQGSEPELCSACIDSAFIRVIKKCHNQTEALDWSSFNEEYPCMIRYSNRSFFGLLEMTPFFKNYNATDFQVNLTEFYQKWEALMLGVIADAISSPNPKFYGAGTGKIGIQTVYAFVLCSKDISPWNCSRCLRGNVDNYKLSCSGKPRGHSFSPSCYMRWDLYQFYGFIEYRASPTLPREKGRISELSDDGGKISTRNILGITVALAFFITVLLVLGYALSRRRKAYQEFATENDITTSGSLQFDFKAIEAATNNFQKSNKLGHGGFGEVFKGTFPNGTEVAVKRLSKISGQGEEEFKNEVLLVAKLQHRNLVRLLGFSVEGEEKILVYEYMPNKSLDYFLFDHRRRGQLDWRTRYNIIRGVTRGILYLHQDSRLTIIHRDLKAGNILLDVDMNPKIADFGVARNFRVDQTEATTGRVVGTFGYMPPEYVANGQFSMKSDVYSFGVLILEIIVGKKSSSFHEIDGSVGNLVTYVWRLWNNESFLELVDPAMGESYDKDEVIRCIHISLLCVQENPADRPTMSTVFQMLTNTFLTLPVPQLPGFVFRVRSEPNPLAERLEPGPSTTMSFACSIDDASITSVDLR
B9: CaM9, nYFP-tagged (protein, UniProt Q9S744 1-151)
chain: B2 chain
B10: CRK33, nYFP-tagged (protein, UniProt Q9LDN1 26-636)
chain: QQCNETGYFEPWKTYDTNRRQILTSLASKVVDHYGFYNSSIGKVPDEVHVMGMCIDGTEPTVCSDCLKVAADQLQENCPNQTEAYTWTPHKTLCFARYSNSSFFKRVGLHPLYMEHSNVDIKSNLTYLNTIWEALTDRLMSDASSDYNASLSSRRYYAANVTNLTNFQNIYALMLCTPDLEKGACHNCLEKAVSEYGNLRMQRGIVAWPSCCFRWDLYPFIGAFNLTLSPPPGSKRNISVGFFVAIVVATGVVISVLSTLVVVLVCRKRKTDPPEESPKYSLQYDLKTIEAATCTFSKCNMLGQGGFGEVFKGVLQDGSEIAVKRLSKESAQGVQEFQNETSLVAKLQHRNLVGVLGFCMEGEEKILVYEFVPNKSLDQFLFEPTKKGQLDWAKRYKIIVGTARGILYLHHDSPLKIIHRDLKASNILLDAEMEPKVADFGMARIFRVDQSRADTRRVVGTHGYISPEYLMHGQFSVKSDVYSFGVLVLEIISGKRNSNFHETDESGKNLVTYAWRHWRNGSPLELVDSELEKNYQSNEVFRCIHIALLCVQNDPEQRPNLSTIIMMLTSNSITLPVPQSPVYEGMDMFLPSIKSLPGSVNDSLIDDLVPR
B11: CRK24, nYFP-tagged (protein, UniProt O65483 21-636)
chain: QVCLERSGFFTPNSTYDLNRRVLLSSLPLNVTAIDGFYTTWIGEHPNRAYGLGMCVPGTDAHSCSDCIILANARLLQNCTNQTEAIVWRIDRTVCLVRYSNRSFYSSLGMEILRSDNYTRDFQANLTDLEITWEALMIRMIDQASYLYYAAGIRKLETSISRIYGFVQCSRDLSLQNCTKCLQQNVVEYRSCCRGRQGGIILRPSCFIRWELYPFLGLFDNIRPRQKDGKSISTGAIVAIIVVPILLLALGVGLWKRRKAYKTKTTKIADDITTSGSLQFEFKAIEAATCNFHNVNKLGHGGFGEVYKGTFPNGTEVAVKRLSKTSGQGEEEFKNEVFLVAKLQHRNLVKLLGYAVKGDEKILVYEFLPNKSLDHFLFDPVKKGQLDWTRRYNIINGITRGIVYLHQDSRLTIIHRDLKAGNILLDADMNPKIVDFGVARNFRVDQTEATTARVVGTIGYMPPEYVTNGQFSTKSDVYSFGVLILEIIGGKKNSSINETDGSISNLVTYVWRLWNNEPLLELVDAPMGENYDRNEVIRCIHIGLLCVQENPADRPTMSTVFHMLTNTSITLHVPQPPGFVFRVRFKPNPLADRLQRGPSTSMSFSCSVSVTCVSPR

molecular target: T1, MKKK20 fused to the GAL4 DNA-binding domain (BD-MKKK20) (Arabidopsis thaliana); assay: two-hybrid

binding | Binder
binds | B1
binds | B2

molecular target: T2, MKKK20-cYFP (Arabidopsis thaliana); assay: split reporter

binding | Binder
binds | B3
binds | B4
binds | B5
binds | B6
binds | B7
binds | B8
binds | B9
binds | B10
binds | B11
